Test results published in publication PMC9192764.
These are yes or no findings as the source states them, for the method shown. Binding seen in cells or lysates may run through a third protein. A result given as binding can be weak or reduced; the word gives no strength.

Chains of the proteins cited; added tags and fusions are not shown. Lines headed by an entry give the natural chain unless they say otherwise; changes in a name come on top.
UniProt P10408: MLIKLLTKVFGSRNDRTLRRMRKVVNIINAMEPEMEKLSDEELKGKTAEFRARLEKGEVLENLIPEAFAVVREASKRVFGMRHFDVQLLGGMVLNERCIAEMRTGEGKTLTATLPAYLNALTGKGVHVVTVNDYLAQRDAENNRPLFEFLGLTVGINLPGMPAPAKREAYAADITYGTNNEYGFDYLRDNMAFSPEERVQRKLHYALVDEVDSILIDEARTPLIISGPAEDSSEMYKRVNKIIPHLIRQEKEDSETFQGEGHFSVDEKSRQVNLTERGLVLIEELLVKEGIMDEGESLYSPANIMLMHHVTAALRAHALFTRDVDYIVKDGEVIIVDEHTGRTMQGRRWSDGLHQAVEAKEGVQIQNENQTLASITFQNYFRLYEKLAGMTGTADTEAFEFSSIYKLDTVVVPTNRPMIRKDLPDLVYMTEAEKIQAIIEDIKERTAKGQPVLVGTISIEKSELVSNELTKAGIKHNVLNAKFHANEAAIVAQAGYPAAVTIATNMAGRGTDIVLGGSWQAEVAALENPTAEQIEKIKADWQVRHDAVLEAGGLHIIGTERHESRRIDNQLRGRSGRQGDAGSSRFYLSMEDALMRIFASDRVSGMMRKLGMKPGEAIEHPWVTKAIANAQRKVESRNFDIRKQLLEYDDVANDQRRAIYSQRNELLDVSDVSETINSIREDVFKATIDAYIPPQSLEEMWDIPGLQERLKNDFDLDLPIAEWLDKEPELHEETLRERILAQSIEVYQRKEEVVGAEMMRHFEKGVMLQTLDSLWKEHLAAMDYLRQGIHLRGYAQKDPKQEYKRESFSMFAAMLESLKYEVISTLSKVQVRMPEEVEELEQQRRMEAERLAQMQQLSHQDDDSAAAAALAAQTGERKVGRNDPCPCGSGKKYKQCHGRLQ
UniProt P0AEG4: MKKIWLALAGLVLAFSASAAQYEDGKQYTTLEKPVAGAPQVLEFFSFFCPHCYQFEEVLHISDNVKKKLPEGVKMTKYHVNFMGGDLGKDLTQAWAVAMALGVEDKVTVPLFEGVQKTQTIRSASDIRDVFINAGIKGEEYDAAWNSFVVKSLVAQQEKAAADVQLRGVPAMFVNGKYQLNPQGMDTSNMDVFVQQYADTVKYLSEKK

Molecular target: SecA with a C-terminal thrombin-cleavable AviTag (chromosomal) (E. coli (endogenous in strain K-12 W3110)) (UniProt P10408)
Test: selective ribosome profiling (EDC cross-linking, affinity purification of SecA-bound ribosome-nascent chain complexes, sequencing of ribosome-protected mRNA fragments); cryogenically lysed E. coli W3110 cells; SecA cross-linked to nascent chains in the lysate with 20 mM EDC at room temperature; MNase digestion; monosomes through a sucrose cushion; biotinylated Avi-tagged SecA held on streptavidin magnetic beads, eluted by thrombin; enrichment = SecA interactome over translatome at each codon; two biological replicates; also done in secA∆ZnBD, ∆secB, ∆tig and CCCP-treated cells

binding: binds
Substance: DsbA nascent chain (from UniProt P0AEG4)
